Results are given in words; binding and its absence hold for the method and conditions named. Binding seen in cells or lysates may run through a third protein. Here binding means that the protein was enriched with, or labelled near, the bait; the list need not be complete. For some assays here: Where a sequence is shown, tags or fusion partners need not be part of it.
Key:
PARG-1::GFP (C. elegans) = target: T1, PARG-1::GFP (C. elegans) (UniProt Q867X0); assay: affinity purification with mass spectrometry; IP/MS targeting PARG-1::GFP; details in SI Appendix, Fig. S9
T1 sequence: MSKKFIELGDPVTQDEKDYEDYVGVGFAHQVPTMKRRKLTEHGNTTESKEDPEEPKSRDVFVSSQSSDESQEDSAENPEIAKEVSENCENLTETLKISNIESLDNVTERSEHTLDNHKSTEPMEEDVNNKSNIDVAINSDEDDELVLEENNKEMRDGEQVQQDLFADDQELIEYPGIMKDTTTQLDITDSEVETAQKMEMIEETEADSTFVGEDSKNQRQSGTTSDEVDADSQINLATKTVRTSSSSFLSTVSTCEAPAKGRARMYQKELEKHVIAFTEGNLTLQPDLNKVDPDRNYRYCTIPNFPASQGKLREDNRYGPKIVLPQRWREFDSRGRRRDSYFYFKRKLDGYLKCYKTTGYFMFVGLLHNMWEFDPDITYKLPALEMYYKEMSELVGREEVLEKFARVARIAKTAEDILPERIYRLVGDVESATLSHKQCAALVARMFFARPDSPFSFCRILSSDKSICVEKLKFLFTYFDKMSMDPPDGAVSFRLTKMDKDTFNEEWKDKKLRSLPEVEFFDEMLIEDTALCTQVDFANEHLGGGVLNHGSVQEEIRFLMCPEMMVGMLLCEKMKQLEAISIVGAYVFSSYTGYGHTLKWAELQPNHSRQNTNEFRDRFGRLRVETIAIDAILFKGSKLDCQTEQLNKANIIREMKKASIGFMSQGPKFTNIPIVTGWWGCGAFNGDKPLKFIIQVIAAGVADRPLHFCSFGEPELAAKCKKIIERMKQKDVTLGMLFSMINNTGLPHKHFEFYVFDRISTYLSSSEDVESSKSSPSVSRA

DUO-1::GFP (C. elegans) = DUO-1::GFP (C. elegans) (UniProt Q7JLI8); assay: proximity labelling; GFP nanobody::NLS::TurboID expressed in the germ line, coupled to DUO-1::GFP; biotinylated proteins captured on streptavidin-coated beads and identified by LC-MS/MS; controls duo-1::GFP only and GFPnanobody::NLS::TurboID only; three replicates per condition

With “DUO-1 (C. elegans (endogenous in worms)) (enzyme)” the binding (PARG-1::GFP (C. elegans)) was “binds”.

B1: Poly(ADP-ribose) Glycohydrolase 1 (PARG-1) (enzyme, UniProt Q867X0 1-781)
chain: MSKKFIELGDPVTQDEKDYEDYVGVGFAHQVPTMKRRKLTEHGNTTESKEDPEEPKSRDVFVSSQSSDESQEDSAENPEIAKEVSENCENLTETLKISNIESLDNVTERSEHTLDNHKSTEPMEEDVNNKSNIDVAINSDEDDELVLEENNKEMRDGEQVQQDLFADDQELIEYPGIMKDTTTQLDITDSEVETAQKMEMIEETEADSTFVGEDSKNQRQSGTTSDEVDADSQINLATKTVRTSSSSFLSTVSTCEAPAKGRARMYQKELEKHVIAFTEGNLTLQPDLNKVDPDRNYRYCTIPNFPASQGKLREDNRYGPKIVLPQRWREFDSRGRRRDSYFYFKRKLDGYLKCYKTTGYFMFVGLLHNMWEFDPDITYKLPALEMYYKEMSELVGREEVLEKFARVARIAKTAEDILPERIYRLVGDVESATLSHKQCAALVARMFFARPDSPFSFCRILSSDKSICVEKLKFLFTYFDKMSMDPPDGAVSFRLTKMDKDTFNEEWKDKKLRSLPEVEFFDEMLIEDTALCTQVDFANEHLGGGVLNHGSVQEEIRFLMCPEMMVGMLLCEKMKQLEAISIVGAYVFSSYTGYGHTLKWAELQPNHSRQNTNEFRDRFGRLRVETIAIDAILFKGSKLDCQTEQLNKANIIREMKKASIGFMSQGPKFTNIPIVTGWWGCGAFNGDKPLKFIIQVIAAGVADRPLHFCSFGEPELAAKCKKIIERMKQKDVTLGMLFSMINNTGLPHKHFEFYVFDRISTYLSSSEDVESSKSSPSVSRA
For B1, the binding (DUO-1::GFP (C. elegans)) was “binds”.

— publication PMC13012089
